Data taken from patent US10000534B2 (CAREGEN CO., LTD., priority 2014, dated 2018).

Columns and labels:
[1] = general procedure: Fmoc solid-phase peptide synthesis; chloro trityl chloride resin (CTL resin, Nova Biochem Cat No. 01-64-0021); HoBt/Bop/DIEA; conditions: whole synthesis, scale of the general procedure 700 mg of resin
[2] = general procedure: Fmoc solid-phase peptide synthesis; chloro trityl chloride resin; HoBt/Bop/DIEA; conditions: whole synthesis

Sequence | crude yield [1] | crude mass [2] | crude yield ([2]; scale of the general procedure 700 mg of resin)
FDMGAYKSSK | 92.1% | – | –
RSLNLRDSQKS | – | 0.85 g | 89.9%

Ends that are not written are not given here.
